The values that follow come from article PMC6727020.

Amino acid sequences for entries named in this document (tags omitted).
UniProt Q8R4B8: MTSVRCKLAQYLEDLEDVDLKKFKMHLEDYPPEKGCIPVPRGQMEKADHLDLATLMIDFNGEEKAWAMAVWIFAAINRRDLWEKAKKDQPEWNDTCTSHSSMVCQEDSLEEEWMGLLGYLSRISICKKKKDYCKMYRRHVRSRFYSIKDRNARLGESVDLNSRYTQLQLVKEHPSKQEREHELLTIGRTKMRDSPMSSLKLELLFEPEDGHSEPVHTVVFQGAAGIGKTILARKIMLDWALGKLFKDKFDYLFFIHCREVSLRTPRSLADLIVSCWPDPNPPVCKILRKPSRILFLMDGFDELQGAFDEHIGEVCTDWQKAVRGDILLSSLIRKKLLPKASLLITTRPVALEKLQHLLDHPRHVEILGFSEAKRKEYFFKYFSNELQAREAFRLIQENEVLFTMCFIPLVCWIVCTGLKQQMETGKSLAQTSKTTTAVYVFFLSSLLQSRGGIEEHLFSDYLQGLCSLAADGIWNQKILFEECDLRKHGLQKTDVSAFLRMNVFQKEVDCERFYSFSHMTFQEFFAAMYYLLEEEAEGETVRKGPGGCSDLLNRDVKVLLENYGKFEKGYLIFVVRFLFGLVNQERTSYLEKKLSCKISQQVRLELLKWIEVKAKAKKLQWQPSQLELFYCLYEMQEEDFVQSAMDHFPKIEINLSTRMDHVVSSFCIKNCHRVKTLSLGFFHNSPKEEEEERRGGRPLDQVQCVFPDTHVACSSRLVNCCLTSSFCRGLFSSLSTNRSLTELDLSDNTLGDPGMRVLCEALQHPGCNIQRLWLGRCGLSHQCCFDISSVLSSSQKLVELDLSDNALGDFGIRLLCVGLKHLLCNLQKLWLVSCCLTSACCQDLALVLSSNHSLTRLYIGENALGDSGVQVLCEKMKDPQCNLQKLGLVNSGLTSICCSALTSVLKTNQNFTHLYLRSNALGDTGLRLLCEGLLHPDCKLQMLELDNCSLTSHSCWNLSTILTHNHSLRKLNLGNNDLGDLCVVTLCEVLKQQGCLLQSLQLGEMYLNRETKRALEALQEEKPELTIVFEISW

The target in test [1] is nucleotide-binding oligomerization domain, leucine-rich repeat and pyrin domain-containing 3 (mouse (endogenous in primary cortical neurons of C57BL/6 mice)) (UniProt Q8R4B8). Nature of the test: co-IP; as a1, but neurons treated with LPS alone (10 ng/ml, 4 h), no ATP.
Test [2] has the same target. The test is described as follows: co-IP; endogenous proteins of primary cortical neurons (NC-shRNA or NEK7-shRNA) stimulated with LPS + ATP or K+-free medium; Pierce IP lysis buffer; anti-NEK7 or anti-NLRP3 antibody coupled to Dynabeads, IgG as negative control, overnight at 4°C; Western blot. On the technique in general: Immunoblotting shows a protein as a band on a membrane.

Results are given in words; binding and its absence hold for the method and conditions named. In cells and extracts the contact can be indirect. Some entries that bind do so weakly or less than the wild type.

B1: pro-caspase-1 (enzyme, UniProt P29452 1-402)
chain: MADKILRAKRKQFINSVSIGTINGLLDELLEKRVLNQEEMDKIKLANITAMDKARDLCDHVSKKGPQASQIFITYICNEDCYLAGILELQSAPSAETFVATEDSKGGHPSSSETKEEQNKEDGTFPGLTGTLKFCPLEKAQKLWKENPSEIYPIMNTTTRTRLALIICNTEFQHLSPRVGAQVDLREMKLLLEDLGYTVKVKENLTALEMVKEVKEFAACPEHKTSDSTFLVFMSHGIQEGICGTTYSNEVSDILKVDTIFQMMNTLKCPSLKDKPKVIIIQACRGEKQGVVLLKDSVRDSEEDFLTDAIFEDDGIKKAHIEKDFIAFCSSTPDNVSWRHPVRGSLFIESLIKHMKEYAWSCDLEDIFRKVRFSFEQPEFRLQMPTADRVTLTKRFYLFPGH
As to B1, the binding result in test [1] is listed as “binds weakly”; in test [2], “binds”.
